Measurements published in PubChem BioAssay AID2685 (National Center for Advancing Translational Sciences (NCATS), 2010).
Screen size: about 320,000 compounds; about 2,100 (0.66%) were called active. Inconclusive means that the source gave no clear call. Such entries were picked first, then a sample of the others. Calls follow the shape of the dose curve; as a rule, active = well fitted inhibition curve with a large enough effect in the signal ratio, with a control signal flat (not every such curve was filed as active); inconclusive = small, poorly fitted or top-dose-only effect, or effect the other way, or a change in a side signal; inactive = flat fitted curve, though single readings scatter; the % refers to the signal ratio. Where the call is inconclusive, the potency comes from a doubtful curve fit.

Assay: qHTS Assay for Lipid Storage Modulators in Drosophila S3 Cells
Details: BODIPY lipid droplet fluorescence, 18-24 h, cells fed with added oleic acid; lipid storage change, negative = inhibition: at 46.1 µM (top of the series) unless noted
How it was run: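 Drosophila S3 cells loaded with oleic acid (400 uM, as added) and compounds at several concentrations; lipid droplets imaged by 488-nm laser-scanning cytometry, 500–530 nm intensity and object ratio to cell channel. Percent activity normalized to 20 uM Triacsin C.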
% is scaled to controls: 0 for no effect and ±100 for the full control effect; potency is read from the fitted curve at half-maximal effect.

Q: For `O=C(C1=C[C@@H](c2ccc(Br)cc2)C[C@@H](OCc2ccc(CO)cc2)O1)N1CCN(Cc2ccc3c(c2)OCO3)CC1`, which lipid storage change, negative = inhibition is on record?
A: inconclusive: -17.5%

Q: With `CCN(CC(=O)Nc1ccc(NC(C)=O)cc1)C(=O)c1n[nH]c(=O)c2ccccc12` as the compound, how does the lipid storage change, negative = inhibition read?
A: inconclusive: -5.22%

Q: With `O=C(Cc1ccccc1F)Nc1nc(-c2ccc(F)cc2)cs1` as the compound, how does the lipid storage change, negative = inhibition read?
A: inconclusive: -100%

Q: Which “lipid storage change, negative = inhibition” value does the source give for `Fc1ccc(-c2csc(-c3ccncc3)n2)cc1` here?
A: inactive: 4.09%

Q: For `COc1ccc(C)cc1S(=O)(=O)N1CCCC(C(=O)NC2CC2)C1` (stereo not given), which Potency is on record?
A: inconclusive: 0.0082 µM [falling, full curve, poor fit]

Q: Which lipid storage change, negative = inhibition does the source give for `Cc1ccc(NS(=O)(=O)c2cc(C(=O)NCc3cccnc3)ccc2C)cc1` here?
A: inconclusive: -5.62%

Q: For `COc1ccc(N2C(=O)C3CCCN3C2c2cccc(C)c2)cc1` (stereo not given), which Potency is on record?
A: inconclusive: 0.0052 µM [falling, full curve, poor fit]

Q: With `CC1N(O)C(c2ccc(Cl)cc2Cl)N(O)C1(C)C` (stereo not given) as the compound, how does the lipid storage change, negative = inhibition read?
A: inconclusive: 1.41%

Q: For `O=C1CCc2cc(S(=O)(=O)NC(Cc3ccccc3)C(=O)NCCC3=CCCCC3)ccc2N1` (stereo not given), which Potency is on record?
A: inconclusive: 0.116 µM [activator, full curve, poor fit]

Q: For `Cc1c(C=O)c2cc(OCc3ccccc3)ccc2n1C`, which lipid storage change, negative = inhibition is on record?
A: inconclusive: -58.5%

Q: Which lipid storage change, negative = inhibition does the source give for `O=C(CN1C(=O)/C(=C/c2ccccc2F)Sc2ccccc21)NCCCN1CCOCC1` here?
A: inconclusive: 101%

Q: For `CCOc1ccc(NC(=O)C(CC)n2nc(C)c3c(C)n(-c4ccccc4)nc3c2=O)cc1` (stereo not given), which lipid storage change, negative = inhibition is on record?
A: inconclusive: -12.6%

Q: For `O=C(C1=C(O)C(=O)N(CCN2CCOCC2)C1c1ccncc1)c1ccco1` (stereo not given), which lipid storage change, negative = inhibition is on record?
A: inconclusive: -5.75%

Q: For `CCn1c(SCc2ccc(C)cc2)nnc1-c1cnccn1`, which Potency is on record?
A: inconclusive: 2.31 µM [activator, partial curve]

Q: For `CC(=O)c1cc(F)ccc1OCC(=O)N1CCCc2ccccc21`, which lipid storage change, negative = inhibition is on record?
A: inconclusive: -25.2%

Q: For `COCCNC(=O)COc1ccccc1C`, which lipid storage change, negative = inhibition is on record?
A: inconclusive: -25.9%

Q: With `CCOc1ccc(NC(=O)CSc2nnnn2C2CCCC2)cc1` as the compound, how does the lipid storage change, negative = inhibition read?
A: inconclusive: 268%

Q: For `O=C1/C(=C\c2ccc(O)c(O)c2)N=C2CCCCCN12`, which lipid storage change, negative = inhibition is on record?
A: inconclusive: -33.2%

Q: Which lipid storage change, negative = inhibition does the source give for `Cc1cccc(NC(=O)c2cc([N+](=O)[O-])ccc2Cl)c1O` here?
A: inconclusive: 120%

Q: With `COc1ccc(C(CNC(=O)c2cccc(S(=O)(=O)N(C)c3ccccc3)c2)N2CCCC2)cc1` (stereo not given) as the compound, how does the Potency read?
A: inconclusive: 29.1 µM [falling, single point]

Q: For `CC(/C=C/c1ccc2c(c1)OCO2)=N/NC(=O)c1ccc(C)nc1`, which lipid storage change, negative = inhibition is on record?
A: inconclusive: 17.3%

Q: For `CN(C)c1ccc(NS(=O)(=O)c2ccc(Cl)cc2)cc1`, which lipid storage change, negative = inhibition is on record?
A: inconclusive: -22.2%

Q: With `COc1cccc(Nc2nc(-c3sc(NC(=O)c4ccccc4)nc3C)cs2)c1` as the compound, how does the lipid storage change, negative = inhibition read?
A: inconclusive: 312%

Q: With `COc1ccccc1C1CC(=O)Nc2c1c(=O)n(C)c(=O)n2C` (stereo not given) as the compound, how does the lipid storage change, negative = inhibition read?
A: inconclusive: 33.9%

Q: Which lipid storage change, negative = inhibition does the source give for `NS(=O)(=O)c1ccc(NC(=O)c2cc(=O)c3ccccc3o2)cc1` here?
A: inconclusive: -57.9%

Q: With `COC(=O)C1=C(C)N(C)C(=O)NC1c1cc(Cl)c(O)c(OC)c1` (stereo not given) as the compound, how does the lipid storage change, negative = inhibition read?
A: inconclusive: 0.258%

Q: For `CC(C)c1ccc(OCC(=O)NC(=S)Nc2ccc3c4c(cccc24)CC3)cc1`, which lipid storage change, negative = inhibition is on record?
A: inconclusive: 23.8%

Q: With `COc1ccc(NC(=O)CSc2ccc3nnc(-c4ccccn4)n3n2)cc1` as the compound, how does the Potency read?
A: inconclusive: 4.11 µM [falling, single point]

Q: For `Cc1ccc([N+](=O)[O-])cc1NC(=O)/C=C/C(=O)O`, which lipid storage change, negative = inhibition is on record?
A: inconclusive: 6.64%

Q: For `CCNCC(O)COCC(O)CNCC` (stereo not given), which Potency is on record?
A: inconclusive: 6.51 µM [cytotoxic, single point]

Q: Which lipid storage change, negative = inhibition does the source give for `Cc1ccc(C(=O)Nc2ccc(Nc3ccccc3)cc2)c(Cl)c1` here?
A: inconclusive: 42.3%

Q: With `CC(Cl)C(=O)NNC(=O)CNS(=O)(=O)c1ccccc1` (stereo not given) as the compound, how does the lipid storage change, negative = inhibition read?
A: inconclusive: -8.81%

Q: With `Cc1c(C(=O)NC2CCN(Cc3ccccc3)C2)oc2ccc(Br)cc12` (stereo not given) as the compound, how does the Potency read?
A: inconclusive: 6.51 µM [activator, full curve]

Q: With `Cc1cc(C)n(-c2ccc(C(=O)C(C#N)c3nc4ccccc4n3C)cc2)n1` (stereo not given) as the compound, how does the lipid storage change, negative = inhibition read?
A: inconclusive: 7.41%

Q: Which Potency does the source give for `COc1cc(C(C)=O)ccc1OCC(=O)N1CCc2ccccc2C1` here?
A: inconclusive: 0.92 µM [falling, partial curve]

Q: With `CCOC(=O)CCSc1nc(N2CCOCC2)c2c(c1C#N)CC(C)(C)OC2` as the compound, how does the Potency read?
A: inconclusive: 0.13 µM [falling, full curve, poor fit]

Q: With `COc1ccc(OCc2nn3c(-c4ccco4)nnc3s2)cc1` as the compound, how does the Potency read?
A: inconclusive: 0.731 µM [activator, full curve]

Q: With `CCCCNC(=O)CN1C(=O)c2cccc(N)c2C1=O` as the compound, how does the lipid storage change, negative = inhibition read?
A: inconclusive: -8.98%

Q: Which Potency does the source give for `N#C/C(=C\c1c[nH]c2ccccc12)C(=O)Nc1ncc(Cc2ccc(Cl)cc2Cl)s1` here?
A: inconclusive: 29.1 µM [falling, single point]

Q: For `Cc1ccc(SCc2cc(=O)[nH]c(Nc3nc(C)c4ccc(C)cc4n3)n2)cc1`, which lipid storage change, negative = inhibition is on record?
A: inconclusive: 13.6%

Q: For `O=C(CCN1CCCC1)c1cccs1`, which lipid storage change, negative = inhibition is on record?
A: inconclusive: -8.48%

Q: With `Cc1cc2nc(C)c(=O)n(C)c2cc1C` as the compound, how does the lipid storage change, negative = inhibition read?
A: inconclusive: 10.5%

Q: With `O=C(COc1ccccc1)NCC(=O)N/N=C/c1ccco1` as the compound, how does the lipid storage change, negative = inhibition read?
A: inconclusive: -3.18%

Q: Which lipid storage change, negative = inhibition does the source give for `CCC1CCCCN1CCCNC(=O)CCNC(=O)Cn1cnc2ccccc2c1=O` (stereo not given) here?
A: inconclusive: 33.9%

Q: Which lipid storage change, negative = inhibition does the source give for `CCC(Sc1nncn1C)C(=O)Nc1nnc(-c2ccc(Cl)cc2)s1` (stereo not given) here?
A: inconclusive: -12.3%

Q: With `O=S1(=O)CCO[C@H]2Cc3ccccc3[C@H]2N1Cc1cccc(C(F)(F)F)c1` as the compound, how does the lipid storage change, negative = inhibition read?
A: inconclusive: -25.8%

Q: Which lipid storage change, negative = inhibition does the source give for `CCOc1ccccc1NC1=C(Cl)C(=O)N(c2ccc(OC)cc2)C1=O` here?
A: inconclusive: 7.09%

Q: For `CC1CCCC(C)N1NC(=O)c1ccc(Cl)c(S(N)(=O)=O)c1` (stereo not given), which lipid storage change, negative = inhibition is on record?
A: inconclusive: -2.34%

Q: Which lipid storage change, negative = inhibition does the source give for `CC(=O)Nc1cccc(C)c1` here?
A: inconclusive: 14.4%

Q: Which lipid storage change, negative = inhibition does the source give for `CCOc1c(OC(C)=O)ccc(/C=C/c2ccc3cccc(OC)c3n2)c1[N+](=O)[O-]` here?
A: inconclusive: -26.6%

Q: Which lipid storage change, negative = inhibition does the source give for `COc1ccc(N2CC(C(=O)OCC(=O)Nc3cccc(C)c3C)CC2=O)cc1` (stereo not given) here?
A: inconclusive: -122%

Q: For `CCc1ccc(CN(C)C(=O)CCc2nnc(CCc3ccccc3OC)o2)nc1`, which lipid storage change, negative = inhibition is on record?
A: inconclusive: -17.8%

Q: With `Cc1ccn(CCC(=O)NC2CC(C)(C)Cc3c2cnn3-c2ccccc2C)n1` (stereo not given) as the compound, how does the lipid storage change, negative = inhibition read?
A: inconclusive: -8.84%

Q: Which lipid storage change, negative = inhibition does the source give for `COc1ccc(CC(=O)Nc2cc(C)ccc2O)cc1OC` here?
A: inconclusive: -23.3%

Q: For `CCOC(=O)c1cc(S(=O)(=O)NC2CCCCC2)cn1C`, which lipid storage change, negative = inhibition is on record?
A: inconclusive: -39.1%

Q: For `Cc1ccc(C)c(OCCC(=O)OCC(=O)Nc2cccc(S(=O)(=O)N3CCCC3)c2)c1`, which “lipid storage change, negative = inhibition” value is on record?
A: inactive: -3.7%

Q: With `CC(=O)c1ccc(NC(=O)c2cc(Cl)sc2Cl)cc1` as the compound, how does the lipid storage change, negative = inhibition read?
A: inconclusive: 16.6%

Q: Which lipid storage change, negative = inhibition does the source give for `O=C(CCCc1nc(-c2ccccc2Cl)no1)N1CCOCC1` here?
A: inconclusive: -54.6% [at 0.00295 µM]

Q: With `Cc1ccc(N2CC(NS(=O)(=O)c3cccnc3)CC2=O)cc1C` (stereo not given) as the compound, how does the lipid storage change, negative = inhibition read?
A: inconclusive: -5.92%

Q: With `c1ccc(OCCOCCSc2ncccn2)cc1` as the compound, how does the lipid storage change, negative = inhibition read?
A: inconclusive: -21.7%

Q: Which lipid storage change, negative = inhibition does the source give for `Cc1c(NC(=O)CN2C(=O)NC(C)(c3ccccc3)C2=O)c(=O)n(-c2ccccc2)n1C` (stereo not given) here?
A: inconclusive: -0.617%

Q: Which Potency does the source give for `Cc1cc(C)c(OCC(=O)N/N=C/c2ccc3c(c2)OCO3)c(C)c1` here?
A: inconclusive: 29.1 µM [falling, single point]

Q: With `CC1(C)CC=C(NNC(=O)c2cccnc2)C(=O)C1` as the compound, how does the lipid storage change, negative = inhibition read?
A: inconclusive: 50.2%

Q: Which Potency does the source give for `CCc1c(C)nc2c(C#N)c[nH]n2c1=O` here?
A: inconclusive: 6.51 µM [activator, full curve]

Q: With `CCN(C(C)=O)c1nnc(CSc2nc3ccccc3s2)s1` as the compound, how does the lipid storage change, negative = inhibition read?
A: inconclusive: 123%

Q: With `CCO[C@H]1OC(C(=O)NCc2nc3ccccc3[nH]2)=C[C@@H](c2ccc(C(F)(F)F)cc2)[C@@H]1CCCO` as the compound, how does the Potency read?
A: inconclusive: 20.6 µM [falling, single point]

Q: For `O=C(Oc1ccc(C(=S)N2CCC(O)CC2)cc1)c1ccc(Cl)cc1`, which lipid storage change, negative = inhibition is on record?
A: inconclusive: 1.34%

Q: With `Cc1ccc2nc(-c3cccnc3)c(NC3CCCCC3)n2c1` as the compound, how does the lipid storage change, negative = inhibition read?
A: inconclusive: 2.33%

Q: Which lipid storage change, negative = inhibition does the source give for `O=C(COc1nncc2ccccc12)Nc1c(F)c(F)c(F)c(F)c1F` here?
A: inconclusive: 35.9%

Q: Which lipid storage change, negative = inhibition does the source give for `COc1ccc(N2CCN(C(=O)c3cc4ccccc4o3)CC2)cc1` here?
A: inconclusive: 50.6%

Q: Which Potency does the source give for `N#CCCCN1C(=O)C(=C(C#N)C#N)c2ccccc21` here?
A: inconclusive: 29.1 µM [cytotoxic, single point]

Q: For `COc1ccccc1N(CC(=O)N1CCOCC1)S(C)(=O)=O`, which lipid storage change, negative = inhibition is on record?
A: inconclusive: 11.7%

Q: Which lipid storage change, negative = inhibition does the source give for `CCCCCOc1ccc(/C=c2\sc3ncnn3c2=O)cc1` here?
A: inconclusive: 0.121%

Q: Which Potency does the source give for `Cc1ccc(S(=O)(=O)N2CCCC2)cc1C(=O)N1CCC(C)CC1` here?
A: inconclusive: 0.731 µM [falling, single point]

Q: With `Cc1ccc(S(=O)(=O)N2CCC(=O)N(C(COCc3ccc(Cl)cc3)C(C)C)CC2)cc1` (stereo not given) as the compound, how does the lipid storage change, negative = inhibition read?
A: inconclusive: 25.1%

Q: Which lipid storage change, negative = inhibition does the source give for `CCN(CC)CCN(C(=O)c1ccc(S(=O)(=O)N2CCCC2)cc1)c1nc2cc(C)cc(C)c2s1` here?
A: inconclusive: 12.1%

Q: Which lipid storage change, negative = inhibition does the source give for `CN(Cc1ccccc1)C(=O)C1CCN(S(=O)(=O)c2ccc(-n3cnnn3)cc2)CC1` here?
A: inconclusive: -3.05%

Q: For `CN(C)S(=O)(=O)c1ccc2oc(SCC(=O)NCC(F)(F)F)nc2c1`, which Potency is on record?
A: inconclusive: 4.11 µM [falling, single point]

Q: Which Potency does the source give for `N#Cc1cccc(NC(=O)CN2NS(=O)(=O)c3ccccc3C2=O)c1` here?
A: inconclusive: 18.4 µM [falling, single point]

Q: With `COc1ccc(S(=O)(=O)Nc2ccccc2C(=O)N2CCOCC2)cc1C` as the compound, how does the “outcome” value read?
A: inactive [at 46.1 µM]
